Assay results from patent US7452858B2 (Amylin Pharmaceuticals, Inc., priority 1999, dated 2008).

Test: Fmoc solid-phase peptide synthesis; 4-(2'-4'-dimethoxyphenyl)-Fmoc aminomethyl phenoxy acetamide norleucine MBHA resin (Novabiochem, 0.55 mmole/g); HBTU (Fast Moc)
Details: whole synthesis, analytical RP-HPLC, C-18 column

Ala Gly Glu Gly Thr Phe Thr Ser Asp Leu Ser Lys Gln Leu Glu Glu Glu Ala Val Arg Leu Phe Ile Glu Phe Leu Lys Asn-NH2
crude purity (method not given): about 75%
